Measurements from paper doi:10.1101/2022.09.14.507933.
Results are given in words; binding and its absence hold for the method and conditions named. In cells and extracts the contact can be indirect. Some binding calls cover weakened binding; strength is not graded here. Tags and fused reporters may be left off the sequences shown.

Assays:
Experiment in all cases: co-IP
[1] = molecular target: T1, Pbp1-FLAG (poly(A)-binding protein - binding protein 1, C-terminal FLAG tag) (S. cerevisiae) (UniProt P53297)
T1 sequence: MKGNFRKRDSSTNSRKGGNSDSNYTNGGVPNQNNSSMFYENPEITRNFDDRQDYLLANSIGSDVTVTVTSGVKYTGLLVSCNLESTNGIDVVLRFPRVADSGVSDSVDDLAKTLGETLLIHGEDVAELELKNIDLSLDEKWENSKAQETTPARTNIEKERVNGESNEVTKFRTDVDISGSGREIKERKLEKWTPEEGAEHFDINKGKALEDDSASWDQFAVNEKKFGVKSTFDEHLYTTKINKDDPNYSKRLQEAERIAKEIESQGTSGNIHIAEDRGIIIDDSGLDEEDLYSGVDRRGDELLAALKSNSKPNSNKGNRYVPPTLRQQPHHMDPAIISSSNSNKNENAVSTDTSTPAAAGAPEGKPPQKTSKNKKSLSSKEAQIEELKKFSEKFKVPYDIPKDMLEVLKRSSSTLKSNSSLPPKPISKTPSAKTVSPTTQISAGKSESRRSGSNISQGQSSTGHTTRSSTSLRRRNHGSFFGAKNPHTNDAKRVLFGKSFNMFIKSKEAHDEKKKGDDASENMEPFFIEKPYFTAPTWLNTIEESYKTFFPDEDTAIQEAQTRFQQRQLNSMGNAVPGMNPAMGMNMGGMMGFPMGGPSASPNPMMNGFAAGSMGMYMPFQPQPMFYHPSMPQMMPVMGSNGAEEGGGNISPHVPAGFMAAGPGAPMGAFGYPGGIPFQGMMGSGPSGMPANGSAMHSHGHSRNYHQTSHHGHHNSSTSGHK

[2] = molecular target: T2, Pbp1 M8Y-Flag (S. cerevisiae) (UniProt P53297)
T2 sequence: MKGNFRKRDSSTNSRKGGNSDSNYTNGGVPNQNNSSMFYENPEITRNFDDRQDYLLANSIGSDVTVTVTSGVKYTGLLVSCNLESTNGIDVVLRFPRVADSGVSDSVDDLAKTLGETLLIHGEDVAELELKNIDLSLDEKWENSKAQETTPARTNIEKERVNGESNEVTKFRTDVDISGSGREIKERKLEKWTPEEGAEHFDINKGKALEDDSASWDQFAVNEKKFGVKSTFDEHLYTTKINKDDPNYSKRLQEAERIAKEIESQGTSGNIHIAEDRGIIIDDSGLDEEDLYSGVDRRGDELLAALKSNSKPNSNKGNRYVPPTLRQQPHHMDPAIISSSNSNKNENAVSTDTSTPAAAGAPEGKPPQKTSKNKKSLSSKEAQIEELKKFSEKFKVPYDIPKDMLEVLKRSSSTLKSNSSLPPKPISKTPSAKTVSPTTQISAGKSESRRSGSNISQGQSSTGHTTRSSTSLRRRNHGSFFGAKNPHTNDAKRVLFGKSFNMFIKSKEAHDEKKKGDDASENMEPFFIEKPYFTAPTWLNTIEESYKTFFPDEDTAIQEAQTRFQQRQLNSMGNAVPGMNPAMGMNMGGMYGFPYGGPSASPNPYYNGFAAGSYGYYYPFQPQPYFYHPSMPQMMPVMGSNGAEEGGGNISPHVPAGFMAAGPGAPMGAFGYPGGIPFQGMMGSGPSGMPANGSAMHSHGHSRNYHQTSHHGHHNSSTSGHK

[3] = molecular target: T3, Pbp1 M8F-Flag (S. cerevisiae) (UniProt P53297)
T3 sequence: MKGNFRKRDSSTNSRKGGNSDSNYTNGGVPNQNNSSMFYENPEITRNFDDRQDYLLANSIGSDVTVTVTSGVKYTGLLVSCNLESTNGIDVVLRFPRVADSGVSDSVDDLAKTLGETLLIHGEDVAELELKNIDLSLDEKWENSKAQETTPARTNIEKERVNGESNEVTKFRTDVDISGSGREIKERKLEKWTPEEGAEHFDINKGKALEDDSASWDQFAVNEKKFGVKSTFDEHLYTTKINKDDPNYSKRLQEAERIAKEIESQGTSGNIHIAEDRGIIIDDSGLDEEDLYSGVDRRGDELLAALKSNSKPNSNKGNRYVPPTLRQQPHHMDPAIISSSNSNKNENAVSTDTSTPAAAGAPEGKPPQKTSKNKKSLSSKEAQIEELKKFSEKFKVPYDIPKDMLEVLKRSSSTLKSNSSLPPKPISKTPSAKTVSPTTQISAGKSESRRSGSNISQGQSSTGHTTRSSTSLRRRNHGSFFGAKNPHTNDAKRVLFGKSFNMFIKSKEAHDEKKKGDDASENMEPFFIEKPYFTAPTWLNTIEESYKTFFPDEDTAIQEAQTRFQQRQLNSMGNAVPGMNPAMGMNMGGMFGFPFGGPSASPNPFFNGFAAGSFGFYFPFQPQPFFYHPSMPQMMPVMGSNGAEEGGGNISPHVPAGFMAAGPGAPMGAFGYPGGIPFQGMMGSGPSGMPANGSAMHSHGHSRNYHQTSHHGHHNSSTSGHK

[4] = molecular target: T4, Puf3-Flag (C-terminal Flag tag) (S. cerevisiae) (UniProt Q07807)
T4 sequence: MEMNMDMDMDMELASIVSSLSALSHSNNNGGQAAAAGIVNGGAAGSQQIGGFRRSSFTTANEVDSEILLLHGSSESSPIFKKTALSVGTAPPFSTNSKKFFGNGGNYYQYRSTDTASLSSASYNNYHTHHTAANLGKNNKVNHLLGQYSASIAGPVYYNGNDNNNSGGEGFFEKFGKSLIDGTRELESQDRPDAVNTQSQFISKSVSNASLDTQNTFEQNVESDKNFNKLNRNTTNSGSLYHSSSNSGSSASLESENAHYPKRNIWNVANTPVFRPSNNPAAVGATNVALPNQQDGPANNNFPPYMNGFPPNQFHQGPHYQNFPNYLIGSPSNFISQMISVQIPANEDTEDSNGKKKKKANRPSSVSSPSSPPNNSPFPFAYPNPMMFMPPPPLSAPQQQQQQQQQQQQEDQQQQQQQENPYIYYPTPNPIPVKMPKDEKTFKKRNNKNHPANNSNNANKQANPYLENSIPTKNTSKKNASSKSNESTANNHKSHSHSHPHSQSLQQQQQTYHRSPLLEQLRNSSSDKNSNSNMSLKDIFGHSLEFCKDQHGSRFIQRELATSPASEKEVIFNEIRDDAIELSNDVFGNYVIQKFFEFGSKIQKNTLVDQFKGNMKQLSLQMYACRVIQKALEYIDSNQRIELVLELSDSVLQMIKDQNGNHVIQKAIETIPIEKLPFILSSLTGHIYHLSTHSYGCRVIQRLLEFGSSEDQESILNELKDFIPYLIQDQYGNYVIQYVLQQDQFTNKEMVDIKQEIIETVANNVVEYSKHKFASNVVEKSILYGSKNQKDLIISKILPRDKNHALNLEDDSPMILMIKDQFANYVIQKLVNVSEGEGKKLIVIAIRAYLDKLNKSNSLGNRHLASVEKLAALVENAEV

B1: Puf3-HA (C-terminal HA tag) (protein, UniProt Q07807 1-879)
chain: MEMNMDMDMDMELASIVSSLSALSHSNNNGGQAAAAGIVNGGAAGSQQIGGFRRSSFTTANEVDSEILLLHGSSESSPIFKKTALSVGTAPPFSTNSKKFFGNGGNYYQYRSTDTASLSSASYNNYHTHHTAANLGKNNKVNHLLGQYSASIAGPVYYNGNDNNNSGGEGFFEKFGKSLIDGTRELESQDRPDAVNTQSQFISKSVSNASLDTQNTFEQNVESDKNFNKLNRNTTNSGSLYHSSSNSGSSASLESENAHYPKRNIWNVANTPVFRPSNNPAAVGATNVALPNQQDGPANNNFPPYMNGFPPNQFHQGPHYQNFPNYLIGSPSNFISQMISVQIPANEDTEDSNGKKKKKANRPSSVSSPSSPPNNSPFPFAYPNPMMFMPPPPLSAPQQQQQQQQQQQQEDQQQQQQQENPYIYYPTPNPIPVKMPKDEKTFKKRNNKNHPANNSNNANKQANPYLENSIPTKNTSKKNASSKSNESTANNHKSHSHSHPHSQSLQQQQQTYHRSPLLEQLRNSSSDKNSNSNMSLKDIFGHSLEFCKDQHGSRFIQRELATSPASEKEVIFNEIRDDAIELSNDVFGNYVIQKFFEFGSKIQKNTLVDQFKGNMKQLSLQMYACRVIQKALEYIDSNQRIELVLELSDSVLQMIKDQNGNHVIQKAIETIPIEKLPFILSSLTGHIYHLSTHSYGCRVIQRLLEFGSSEDQESILNELKDFIPYLIQDQYGNYVIQYVLQQDQFTNKEMVDIKQEIIETVANNVVEYSKHKFASNVVEKSILYGSKNQKDLIISKILPRDKNHALNLEDDSPMILMIKDQFANYVIQKLVNVSEGEGKKLIVIAIRAYLDKLNKSNSLGNRHLASVEKLAALVENAEV
Q: Which results are given for B1?
A: binding [1]: binds; binding [2]: binds; binding [3]: binds

B2: Pbp1, epitope-tagged, prey of the reciprocal Flag co-IP with Puf3-Flag (protein, UniProt P53297 1-722)
chain: MKGNFRKRDSSTNSRKGGNSDSNYTNGGVPNQNNSSMFYENPEITRNFDDRQDYLLANSIGSDVTVTVTSGVKYTGLLVSCNLESTNGIDVVLRFPRVADSGVSDSVDDLAKTLGETLLIHGEDVAELELKNIDLSLDEKWENSKAQETTPARTNIEKERVNGESNEVTKFRTDVDISGSGREIKERKLEKWTPEEGAEHFDINKGKALEDDSASWDQFAVNEKKFGVKSTFDEHLYTTKINKDDPNYSKRLQEAERIAKEIESQGTSGNIHIAEDRGIIIDDSGLDEEDLYSGVDRRGDELLAALKSNSKPNSNKGNRYVPPTLRQQPHHMDPAIISSSNSNKNENAVSTDTSTPAAAGAPEGKPPQKTSKNKKSLSSKEAQIEELKKFSEKFKVPYDIPKDMLEVLKRSSSTLKSNSSLPPKPISKTPSAKTVSPTTQISAGKSESRRSGSNISQGQSSTGHTTRSSTSLRRRNHGSFFGAKNPHTNDAKRVLFGKSFNMFIKSKEAHDEKKKGDDASENMEPFFIEKPYFTAPTWLNTIEESYKTFFPDEDTAIQEAQTRFQQRQLNSMGNAVPGMNPAMGMNMGGMMGFPMGGPSASPNPMMNGFAAGSMGMYMPFQPQPMFYHPSMPQMMPVMGSNGAEEGGGNISPHVPAGFMAAGPGAPMGAFGYPGGIPFQGMMGSGPSGMPANGSAMHSHGHSRNYHQTSHHGHHNSSTSGHK
Q: With B2 as the binder, how does the binding [4] read?
A: Its binding is “binds”.
